Source: US20230181527A1, “APICAL SODIUM-DEPENDENT TRANSPORTER INHIBITOR COMPOSITIONS” (Mirum Pharmaceuticals, Inc., priority 2021, published 2023)
For at least one compound, name, drawing or mass did not settle the structure.

Tested on: MDR2−/− mice
Test: MDR2−/− mouse model of sclerosing cholangitis
Format: in vivo
Settings: female MDR2−/− mice, daily for 14 days
Protocol: Methods: 30-day-old female MDR2−/− mice (FVB background) were treated daily for 14 days by orogastric gavage with either vehicle control (Kolliphor and CMC), 100 mg/kg/day bezafibrate (pan-PPAR agonist), 100 mg/kg/day fenofibrate (PPARα agonist), 10 mg/kg seladelpar (PPARδ agonist), 0.008% SC-435 (non-absorbable IBAT inhibitor) admixed to chow, or a combination of SC-435 and PPAR agonists.

CC(C)OC(=O)C(C)(C)Oc1ccc(C(=O)c2ccc(Cl)cc2)cc1 [fenofibrate]
serum ALT levels: All treatments except for fenofibrate reduced serum ALT levels
serum BA concentrations: decreased
